Some of these results come from one statement about several compounds together.
Columns and labels:
Format in all cases: cell-based
Conditions in all cases: 31 ppm; relative to active compound-free control (100%)
Pyricularia oryzae = test system: Pyricularia oryzae
Botrytis cinerea = experiment: Microtest: activity against the grey mold Botrytis cinerea in the microtiterplate test
Fusarium culmorum = experiment: Microtest: activity against Fusarium culmorum in the microtiterplate test

Row | SMILES | growth of the pathogen (relative growth in %) (Pyricularia oryzae) | growth of the pathogen (relative growth in %) (Botrytis cinerea) | growth of the pathogen (relative growth in %) (Fusarium culmorum)
1 | CCC1(C)N=C(c2cnc(C(F)F)c(C)c2)c2cccc(F)c2N1 (racemic) [Ex-25] | up to 20% | up to 14% | –
2 | Cc1cc(C2=NC(C)(CC(C)C)Nc3c(F)cccc32)cnc1C(F)F (racemic) [Ex-26] | up to 20% | up to 14% | –
3 | Cc1cc(C2=NC(C)(C3CC3)Nc3c(F)cccc32)cnc1C(F)F (racemic) [Ex-42] | up to 20% | up to 14% | –
4 | Cc1cc(C2=NC(C)(c3ccccn3)Nc3c(F)cccc32)cnc1C(F)F (racemic) [Ex-44] | up to 20% | up to 14% | –
5 | COCC1(C)N=C(c2cnc(C(F)F)c(C)c2)c2cccc(F)c2N1C (racemic) [Ex-59] | – | – | up to 20%
6 | Cc1cc(C2=NC(C)(CC#N)N(C)c3c(F)cccc32)cnc1C(F)F (racemic) [Ex-149] | – | – | up to 20%
7 | Cc1cc(C2=NC(C)(CC(N)=O)N(C)c3c(F)cccc32)cnc1C(F)F (racemic) [Ex-151] | – | – | up to 20%
8 | Cc1cc(C2=NC(C)(C)Nc3c(F)cccc32)cnc1C(F)F [Ex-5] | up to 20% | up to 14% | –
9 | Cc1cc(C2=NC(C)(C)Nc3c(Cl)cccc32)cnc1C(F)F [Ex-8] | up to 20% | up to 14% | –
10 | CC(=O)N1c2c(F)cccc2C(c2cnc(C(F)F)c(C)c2)=NC1(C)C [Ex-20] | – | up to 14% | up to 20%
11 | Cc1ccc2c(c1)NC(C)(C)N=C2c1cnc(C(F)F)c(C)c1 [Ex-31] | up to 20% | up to 14% | –
12 | Cc1cc(C2=NC(C)(C)N(C#N)c3c(F)cccc32)cnc1C [Ex-34] | – | – | up to 20%
13 | Cc1cc(C2=NC(C)(C)Nc3cc(Cl)ccc32)cnc1C(F)F [Ex-37] | up to 20% | up to 14% | –
14 | CCCN1c2ccccc2C(c2cnc(C)c(C)c2)=NC1(C)C [Ex-46] | – | – | up to 20%
15 | CCN1c2ccccc2C(c2cnc(C)c(C)c2)=NC1(C)C [Ex-47] | – | up to 14% | up to 20%
16 | Cc1cc(C2=NC(C)(C)Nc3c(F)cccc32)cnc1C [Ex-48] | – | up to 14% | –
17 | Cc1cc(C2=NC(C)(C)N(Cc3ccccc3)c3c(F)cccc32)cnc1C [Ex-63] | – | – | up to 20%
18 | CCN1c2c(F)cccc2C(c2cnc(C)c(C)c2)=NC1(C)C [Ex-65] | – | – | up to 20%
19 | Cc1cc(C2=NC(C)(C)N(Cc3ccncc3)c3c(F)cccc32)cnc1C [Ex-67] | – | – | up to 20%
20 | Cc1cc(C2=NC(C)(C)N(Cc3cccc(F)c3)c3c(F)cccc32)cnc1C(F)F [Ex-75] | – | – | up to 20%
21 | Cc1cc(C2=NC(C)(C)N(Cc3ccccc3)c3c(F)cccc32)cnc1C(F)F [Ex-77] | – | – | up to 20%
22 | C#Cc1cccc2c1NC(C)(C)N=C2c1cnc(C(F)F)c(C)c1 [Ex-81] | – | – | up to 20%
23 | Cc1ccc2c(c1)N(C#N)C(C)(C)N=C2c1cnc(C(F)F)c(C)c1 [Ex-89] | – | – | up to 20%
24 | Cc1cc(C2=NC(C)(C)N(C)c3c2ccc(Br)c3C)cnc1C(F)F [Ex-93] | – | – | up to 20%
25 | C=CCN1c2c(F)cccc2C(c2cnc(C(F)F)c(C)c2)=NC1(C)C [Ex-101] | – | – | up to 20%
26 | C#CCN1c2c(F)cccc2C(c2cnc(C(F)F)c(C)c2)=NC1(C)C [Ex-102] | – | – | up to 20%

Row | SMILES | growth of the pathogen (relative growth in %) (Pyricularia oryzae) | growth of the pathogen (relative growth in %) (Botrytis cinerea) | growth of the pathogen (relative growth in %) (Fusarium culmorum)
27 | CCCN1c2c(F)cccc2C(c2cnc(C)c(C)c2)=NC1(C)C [Ex-103] | – | – | up to 20%
28 | C=CCN1c2ccccc2C(c2cnc(C)c(C)c2)=NC1(C)C [Ex-104] | – | – | up to 20%
29 | C=CCN1c2c(F)cccc2C(c2cnc(C)c(C)c2)=NC1(C)C [Ex-105] | – | – | up to 20%
30 | C#CCN1c2c(F)cccc2C(c2cnc(C)c(C)c2)=NC1(C)C [Ex-106] | – | – | up to 20%
31 | C#CCN1c2ccccc2C(c2cnc(C)c(C)c2)=NC1(C)C [Ex-107] | – | – | up to 20%
32 | CC#CCN1c2ccccc2C(c2cnc(C)c(C)c2)=NC1(C)C [Ex-114] | – | – | up to 20%
33 | Cc1cc(C2=NC(C)(C)N(CC(=O)OC(C)(C)C)c3c(F)cccc32)cnc1C(F)F [Ex-117] | – | – | up to 20%
34 | COC(=O)CC1(C)N=C(c2cnc(C(F)F)c(C)c2)c2cccc(F)c2N1C (centres unmarked) [Ex-121] | – | – | up to 20%
35 | Cc1cc(C2=NC(C)(Cc3ccccc3)N(C#N)c3c(F)cccc32)cnc1C(F)F (centres unmarked) [Ex-122] | – | – | up to 20%
36 | Cc1cc(C2=NC(C)(Cc3ccccc3)N(C)c3c(F)cccc32)cnc1C(F)F (centres unmarked) [Ex-123] | – | – | up to 20%
37 | Cc1cc(C2=NC(C)(C)N(C#N)c3c2ccc(C)c3C)cnc1C(F)F [Ex-125] | – | – | up to 20%
38 | COCCN1c2c(F)cccc2C(c2cnc(C(F)F)c(C)c2)=NC1(C)C [Ex-132] | – | – | up to 20%
39 | COc1ccc2c(c1F)N(C)C(C)(C)N=C2c1cnc(C(F)F)c(C)c1 [Ex-134] | – | – | up to 20%
40 | COc1ccc2c(c1F)N(C#N)C(C)(C)N=C2c1cnc(C(F)F)c(C)c1 [Ex-135] | – | – | up to 20%
41 | Cc1cc(C2=NC(C)(C)N(C)c3c2ccc(C)c3C)cnc1C(F)F [Ex-137] | – | – | up to 20%
42 | Cc1cc(C2=NC(C)(C)N(C)c3c2ccc(Cl)c3F)cnc1C(F)F [Ex-145] | – | – | up to 20%
43 | Cc1cc(C2=NC(C)(C)N(C)c3c2ccc(C)c3F)cnc1C(F)F [Ex-147] | – | – | up to 20%
44 | Cc1cc(C2=NC(C)(C)N(C#N)c3c2ccc(C)c3F)cnc1C(F)F [Ex-148] | – | – | up to 20%
45 | Cc1cc(C2=NC(C)(C)N(CCCl)c3c(F)cccc32)cnc1C(F)F [Ex-160] | – | up to 14% | up to 20%
46 | CN1c2c(F)cccc2C(c2cnc3c(c2)CCCC3)=NC1(C)C [Ex-164] | – | – | up to 20%
47 | CC1(C)N=C(c2cnc3c(c2)CCCC3)c2cccc(F)c2N1C#N [Ex-165] | – | – | up to 20%
48 | C=C(C)CN1c2c(F)cccc2C(c2cnc(C)c(C)c2)=NC1(C)C [Ex-166] | – | – | up to 20%
49 | C=C(C)CN1c2ccccc2C(c2cnc(C)c(C)c2)=NC1(C)C [Ex-167] | – | – | up to 20%
50 | Cc1cc(C2=NC(C)(C)N(C)c3c2ccc(F)c3Cl)cnc1C(F)F [Ex-170] | – | – | up to 20%
51 | Cc1cc(C2=NC(C)(C)N(CCC#N)c3c(F)cccc32)cnc1C(F)F [Ex-172] | – | – | up to 20%
